Results taken from PubChem BioAssay (NCI).
This list holds what a sample rich in hits left over. The source made the active and inactive calls. Cut-off read from the data, not from the text of the source: active = growth inhibition above about 70%; inactive = the rest.

How the values were obtained:
[1] = NCI Yeast Anticancer Drug Screen. Data for the rad52 strain (AID 147);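 note: 0% = growth of vehicle-treated control cultures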; details: S. cerevisiae rad52 mutant growth inhibition, stronger effect = higher value
Method in brief: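 Screen used a yeast mutant impaired in DNA repair. After compound exposure, growth was measured. Values reflect inhibition compared with vehicle-treated cells.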

[2] = NCI Yeast Anticancer Drug Screen. Data for the wt1 strain (AID 149);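 note: 0% = growth of vehicle-treated wt1 cultures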; details: S. cerevisiae wt1 strain (SPY 50644) growth inhibition, stronger effect = higher value
Method in brief: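 The wt1 strain was treated with compounds, and growth was compared with vehicle-treated cultures to give inhibition.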

[3] = NCI Yeast Anticancer Drug Screen. Data for the rad50EPP+ strain (AID 151);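 note: 0% = growth of vehicle-treated control cultures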; details: S. cerevisiae rad50 mutant strain, stronger effect = higher value
Method in brief: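 Exposing the rad50EPP+ strain to each compound, growth was compared with vehicle-only cultures to give inhibition.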

[4] = NCI Yeast Anticancer Drug Screen. Data for the mgt1 strain (AID 153); details: S. cerevisiae mgt1 mutant growth inhibition, stronger effect = higher value
Method in brief: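 Genetically defined yeast (mgt1) treated with compound; inhibition of growth expressed against vehicle-treated controls.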

[5] = NCI Yeast Anticancer Drug Screen. Data for the rad14 strain (AID 159);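 note: 0% = growth of vehicle-treated control cultures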; details: S. cerevisiae rad14 strain growth inhibition, stronger effect = higher value
Method in brief: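 Readout: yeast growth inhibition, referenced to vehicle-only cultures. Strain bears a defined alteration in DNA damage repair.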

[6] = NCI Yeast Anticancer Drug Screen. Data for the CLN2oe strain (AID 163);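 note: 0% = growth of vehicle-only control cultures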; details: S. cerevisiae CLN2oe strain, stronger effect = higher value
Method in brief: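 Values reflect how much compound exposure reduced yeast growth, referenced to vehicle-exposed cells. Assay organism is a strain with a defined genetic change affecting cell-cycle control.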

[7] = NCI Yeast Anticancer Drug Screen. Data for the wt2 strain (AID 169);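 note: 0% = growth of vehicle-treated yeast cultures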; details: S. cerevisiae wt2 strain growth inhibition, stronger effect = higher value
Method in brief: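 Values express reduction in yeast growth under compound treatment, referenced to vehicle-treated cells.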

[8] = NCI Yeast Anticancer Drug Screen. Data for the mlh1 strain (AID 171);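 note: 0% = growth of vehicle-treated control cultures of the same strain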; details: S. cerevisiae mlh1 strain growth inhibition, stronger effect = higher value
Method in brief: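 Steps: expose the defined-mutant yeast strain to compound; expose a parallel culture to vehicle; measure growth; express compound effect as inhibition relative to the vehicle culture.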

[9] = NCI Yeast Anticancer Drug Screen. Data for the sgs1 strain (AID 173);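 note: 0% = growth of vehicle-only control cultures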; details: S. cerevisiae sgs1 mutant, stronger effect = higher value
Method in brief: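 Treat defined-mutant yeast with compound; measure growth; calculate inhibition relative to vehicle-treated cells.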

[10] = NCI Yeast Anticancer Drug Screen. Data for the rad18 strain (AID 177); details: S. cerevisiae rad18 mutant growth inhibition, stronger effect = higher value
Method in brief: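 A genetically defined yeast mutant impaired in DNA damage repair was treated with test compounds, then its growth was measured against cultures receiving vehicle alone.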

Measured: growth inhibition

CC[C@]1(O)C[C@H]2CN(CCc3c([nH]c4ccccc34)[C@@](C(=O)OC)(c3cc4c(cc3OC)N(C=O)[C@H]3[C@@](O)(C(=O)OC)[C@H](OC(C)=O)[C@]5(CC)C=CCN6CC[C@]43[C@@H]65)C2)C1
inactive: [1]; at 1.2 µM -1% | [1]; at 3.7 µM -1% | [1]; at 11.0 µM 1% | [1]; at 33.0 µM -1% | [1]; at 100.0 µM -3% | [2]; at 1.2 µM 0% | [2]; at 3.7 µM -1% | [2]; at 11.0 µM -3% | [2]; at 33.0 µM -8% | [2]; at 100.0 µM -21% | [3]; at 1.2 µM -2% | [3]; at 3.7 µM -4% | [3]; at 11.0 µM -4% | [3]; at 33.0 µM -2% | [3]; at 100.0 µM -7% | [4]; at 1.2 µM -5% | [4]; at 3.7 µM -3% | [4]; at 11.0 µM -3% | [4]; at 33.0 µM -4% | [4]; at 100.0 µM -7% | [5]; at 1.2 µM -2% | [5]; at 3.7 µM -4% | [5]; at 11.0 µM -4% | [5]; at 33.0 µM -2% | [5]; at 100.0 µM -3% | [6]; at 1.2 µM -8% | [6]; at 3.7 µM -2% | [6]; at 11.0 µM -3% | [6]; at 33.0 µM -9% | [6]; at 100.0 µM -5% | [7]; at 1.2 µM -4% | [7]; at 3.7 µM -4% | [7]; at 11.0 µM -4% | [7]; at 33.0 µM -4% | [7]; at 100.0 µM -5% | [8]; at 1.2 µM -2% | [8]; at 3.7 µM -2% | [8]; at 11.0 µM -2% | [8]; at 33.0 µM -3% | [8]; at 100.0 µM -5% | [9]; at 1.2 µM -1% | [9]; at 3.7 µM -2% | [9]; at 11.0 µM -2% | [9]; at 33.0 µM -2% | [9]; at 100.0 µM -5% | [10]; at 1.2 µM -3% | [10]; at 3.7 µM -6% | [10]; at 11.0 µM -8% | [10]; at 33.0 µM -13% | [10]; at 100.0 µM -12%

CCCCC/C(C)=N/Nc1ccc([N+](=O)[O-])cc1[N+](=O)[O-]
inactive: [1]; at 1.2 µM -1% | [1]; at 3.7 µM 1% | [1]; at 11.0 µM 1% | [1]; at 33.0 µM 1% | [1]; at 100.0 µM 1% | [2]; at 1.2 µM -2% | [2]; at 3.7 µM -6% | [2]; at 11.0 µM -3% | [2]; at 33.0 µM -2% | [2]; at 100.0 µM -2% | [3]; at 1.2 µM 1% | [3]; at 3.7 µM 3% | [3]; at 11.0 µM 3% | [3]; at 33.0 µM 6% | [3]; at 100.0 µM 12% | [4]; at 1.2 µM -5% | [4]; at 3.7 µM -1% | [4]; at 11.0 µM -1% | [4]; at 33.0 µM 1% | [4]; at 100.0 µM 0% | [5]; at 1.2 µM 4% | [5]; at 3.7 µM 2% | [5]; at 11.0 µM 2% | [5]; at 33.0 µM 6% | [5]; at 100.0 µM 3% | [6]; at 1.2 µM -2% | [6]; at 3.7 µM -1% | [6]; at 11.0 µM -2% | [6]; at 33.0 µM 2% | [6]; at 100.0 µM 2% | [7]; at 1.2 µM -10% | [7]; at 3.7 µM -10% | [7]; at 11.0 µM -6% | [7]; at 33.0 µM -10% | [7]; at 100.0 µM -8% | [8]; at 1.2 µM -2% | [8]; at 3.7 µM -1% | [8]; at 11.0 µM -1% | [8]; at 33.0 µM 1% | [8]; at 100.0 µM 2% | [9]; at 1.2 µM -12% | [9]; at 3.7 µM 7% | [9]; at 11.0 µM 4% | [9]; at 33.0 µM 5% | [9]; at 100.0 µM 5% | [10]; at 1.2 µM -2% | [10]; at 3.7 µM 0% | [10]; at 11.0 µM 0% | [10]; at 33.0 µM 2% | [10]; at 100.0 µM 7%

O=[N+]([O-])c1ccc(Nc2ccc(O)cc2)c([N+](=O)[O-])c1
inactive: [1]; at 1.2 µM -4% | [1]; at 3.7 µM -3% | [1]; at 11.0 µM -1% | [1]; at 33.0 µM -54% | [1]; at 100.0 µM 1% | [2]; at 1.2 µM -3% | [2]; at 3.7 µM -3% | [2]; at 11.0 µM -5% | [2]; at 33.0 µM -8% | [2]; at 100.0 µM -9% | [3]; at 1.2 µM -2% | [3]; at 3.7 µM 4% | [3]; at 11.0 µM 15% | [3]; at 33.0 µM 14% | [3]; at 100.0 µM 12% | [4]; at 1.2 µM -3% | [4]; at 3.7 µM -3% | [4]; at 11.0 µM -3% | [4]; at 33.0 µM -6% | [4]; at 100.0 µM -2% | [5]; at 1.2 µM -5% | [5]; at 3.7 µM -5% | [5]; at 11.0 µM -2% | [5]; at 33.0 µM 3% | [5]; at 100.0 µM 1% | [6]; at 1.2 µM -6% | [6]; at 3.7 µM -11% | [6]; at 11.0 µM -21% | [6]; at 33.0 µM -18% | [6]; at 100.0 µM -15% | [7]; at 1.2 µM -2% | [7]; at 3.7 µM -5% | [7]; at 11.0 µM -6% | [7]; at 33.0 µM -6% | [7]; at 100.0 µM -6% | [8]; at 1.2 µM -2% | [8]; at 3.7 µM 0% | [8]; at 11.0 µM 2% | [8]; at 33.0 µM 6% | [8]; at 100.0 µM 8% | [9]; at 1.2 µM 0% | [9]; at 3.7 µM 1% | [9]; at 11.0 µM 5% | [9]; at 33.0 µM 9% | [9]; at 100.0 µM 2% | [10]; at 1.2 µM -1% | [10]; at 3.7 µM 2% | [10]; at 11.0 µM 2% | [10]; at 33.0 µM 7% | [10]; at 100.0 µM 12%
